From paper PMC7482815
Results are given in words; binding and its absence hold for the method and conditions named. In cells and extracts the contact can be indirect. For part of these data: A result given as binding can be weak or reduced; the word gives no strength.

Assays:
Assay in all cases: co-IP; whole cell lysates of HeLa cells transfected with ECT2/wt, ECT2/GEF^mt or FLAG-tagged deletion mutants of USP7 or ECT2; the partner detected by immunoblot
[1] = target: FLAG-tagged CD domain of USP7
[2] = target: FLAG-tagged MATH domain deficient USP7 (USP7/ΔMATH)
[3] = target: FLAG-tagged ubiquitin like (UBL) domain of USP7

binding [1]: no binding | binding [2]: binds | binding [3]: no binding
B1: epithelial cell transforming sequence 2 (ECT2), endogenous (protein, UniProt Q9H8V3-4 1-883)
chain: MAENSVLTSTTGRTSLADSSIFDSKVTEISKENLLIGSTSYVEEEMPQIETRVILVQEAGKQEELIKALKDIKVGFVKMESVEEFEGLDSPEFENVFVVTDFQDSVFNDLYKADCRVIGPPVVLNCSQKGEPLPFSCRPLYCTSMMNLVLCFTGFRKKEELVRLVTLVHHMGGVIRKDFNSKVTHLVANCTQGEKFRVAVSLGTPIMKPEWIYKAWERRNEQDFYAAVDDFRNEFKVPPFQDCILSFLGFSDEEKTNMEEMTEMQGGKYLPLGDERCTHLVVEENIVKDLPFEPSKKLYVVKQEWFWGSIQMDARAGETMYLYEKANTPELKKSVSMLSLNTPNSNRKRRRLKETLAQLSRETDVSPFPPRKRPSAEHSLSIGSLLDISNTPESSINYGDTPKSCTKSSKSSTPVPSKQSARWQVAKELYQTESNYVNILATIIQLFQVPLEEEGQRGGPILAPEEIKTIFGSIPDIFDVHTKIKDDLEDLIVNWDESKSIGDIFLKYSKDLVKTYPPFVNFFEMSKETIIKCEKQKPRFHAFLKINQAKPECGRQSLVELLIRPVQRLPSVALLLNDLKKHTADENPDKSTLEKAIGSLKEVMTHINEDKRKTEAQKQIFDVVYEVDGCPANLLSSHRSLVQRVETISLGEHPCDRGEQVTLFLFNDCLEIARKRHKVIGTFRSPHGQTRPPASLKHIHLMPLSQIKKVLDIRETEDCHNAFALLVRPPTEQANVLLSFQMTSDELPKENWLKMLCRHVANTICKADAENLIYTADPESFEVNTKDMDSTLSRASRAIKKTSKKVTRAFSFSKTPKRALRRALMTSHGSVEGRSPSSNDKHVMSRLSSTSSLAGIPSPSLVSLPSFFERRSHTLSRSTTHLI
